In the supplement of paper PMC10849652:
The other results are listed elsewhere or left out.

Protein sequences, listed by entry. Tags and fused reporters are not part of them. Lines headed by an entry give the natural chain unless they say otherwise; changes in a name come on top.
UniProt Q15437: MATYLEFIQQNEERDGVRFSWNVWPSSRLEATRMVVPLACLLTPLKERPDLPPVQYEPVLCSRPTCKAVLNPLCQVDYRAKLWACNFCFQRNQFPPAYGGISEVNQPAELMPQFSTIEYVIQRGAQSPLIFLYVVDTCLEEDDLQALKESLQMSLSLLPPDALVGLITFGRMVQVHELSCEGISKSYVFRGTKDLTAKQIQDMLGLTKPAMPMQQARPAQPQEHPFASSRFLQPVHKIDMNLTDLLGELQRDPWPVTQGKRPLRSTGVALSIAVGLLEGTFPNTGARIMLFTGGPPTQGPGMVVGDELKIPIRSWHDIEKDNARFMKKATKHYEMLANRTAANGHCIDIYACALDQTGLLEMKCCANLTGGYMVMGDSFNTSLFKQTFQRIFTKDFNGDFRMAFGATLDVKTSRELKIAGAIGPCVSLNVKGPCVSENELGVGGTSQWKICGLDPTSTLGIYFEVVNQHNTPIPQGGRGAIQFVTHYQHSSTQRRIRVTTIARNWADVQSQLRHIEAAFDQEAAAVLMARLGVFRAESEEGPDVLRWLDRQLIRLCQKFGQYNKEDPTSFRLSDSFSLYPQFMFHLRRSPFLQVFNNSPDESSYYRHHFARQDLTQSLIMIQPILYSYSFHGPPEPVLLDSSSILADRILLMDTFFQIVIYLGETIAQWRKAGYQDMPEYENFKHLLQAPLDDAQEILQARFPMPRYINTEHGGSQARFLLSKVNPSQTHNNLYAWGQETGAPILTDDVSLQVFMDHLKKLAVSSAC
UniProt Q9Y3I0: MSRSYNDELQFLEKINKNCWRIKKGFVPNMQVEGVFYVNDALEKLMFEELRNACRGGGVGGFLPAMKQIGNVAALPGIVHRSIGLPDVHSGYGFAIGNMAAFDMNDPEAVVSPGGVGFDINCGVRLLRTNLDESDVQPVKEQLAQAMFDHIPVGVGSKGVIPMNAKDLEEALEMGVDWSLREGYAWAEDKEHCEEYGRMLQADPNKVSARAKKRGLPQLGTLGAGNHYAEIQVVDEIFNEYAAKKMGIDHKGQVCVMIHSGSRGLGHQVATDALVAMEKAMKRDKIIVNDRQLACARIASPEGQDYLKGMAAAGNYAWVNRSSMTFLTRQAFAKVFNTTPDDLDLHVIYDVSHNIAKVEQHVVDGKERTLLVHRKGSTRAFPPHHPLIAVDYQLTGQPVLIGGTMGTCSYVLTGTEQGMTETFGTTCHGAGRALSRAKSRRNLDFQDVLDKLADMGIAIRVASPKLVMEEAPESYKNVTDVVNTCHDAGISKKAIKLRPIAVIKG
UniProt Q9Y3Z3: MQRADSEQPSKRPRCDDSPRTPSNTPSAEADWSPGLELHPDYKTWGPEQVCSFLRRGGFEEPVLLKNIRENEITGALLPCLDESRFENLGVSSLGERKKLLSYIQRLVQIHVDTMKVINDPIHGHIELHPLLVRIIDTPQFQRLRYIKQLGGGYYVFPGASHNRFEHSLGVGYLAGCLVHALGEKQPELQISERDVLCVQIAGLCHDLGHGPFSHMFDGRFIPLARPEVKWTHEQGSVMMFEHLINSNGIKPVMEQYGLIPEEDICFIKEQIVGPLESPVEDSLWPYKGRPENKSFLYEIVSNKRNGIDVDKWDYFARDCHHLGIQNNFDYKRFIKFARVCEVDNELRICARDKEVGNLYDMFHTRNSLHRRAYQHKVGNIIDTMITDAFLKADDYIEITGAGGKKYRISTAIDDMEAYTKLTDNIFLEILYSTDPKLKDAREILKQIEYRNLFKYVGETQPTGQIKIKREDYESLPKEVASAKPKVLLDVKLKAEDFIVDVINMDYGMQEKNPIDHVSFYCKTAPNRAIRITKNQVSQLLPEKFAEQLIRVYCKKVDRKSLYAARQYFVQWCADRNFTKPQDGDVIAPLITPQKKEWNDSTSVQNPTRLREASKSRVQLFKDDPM
UniProt Q9BRK5: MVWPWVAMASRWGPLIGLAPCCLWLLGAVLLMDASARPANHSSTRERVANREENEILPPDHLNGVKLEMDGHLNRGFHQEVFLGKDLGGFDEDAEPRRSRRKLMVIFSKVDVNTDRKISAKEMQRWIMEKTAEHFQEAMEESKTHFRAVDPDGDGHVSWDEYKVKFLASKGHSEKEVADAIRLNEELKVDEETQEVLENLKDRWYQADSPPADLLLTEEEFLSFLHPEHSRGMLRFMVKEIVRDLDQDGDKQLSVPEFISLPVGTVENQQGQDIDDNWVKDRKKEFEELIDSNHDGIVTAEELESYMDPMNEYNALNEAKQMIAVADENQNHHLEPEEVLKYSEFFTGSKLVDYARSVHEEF
UniProt P31040: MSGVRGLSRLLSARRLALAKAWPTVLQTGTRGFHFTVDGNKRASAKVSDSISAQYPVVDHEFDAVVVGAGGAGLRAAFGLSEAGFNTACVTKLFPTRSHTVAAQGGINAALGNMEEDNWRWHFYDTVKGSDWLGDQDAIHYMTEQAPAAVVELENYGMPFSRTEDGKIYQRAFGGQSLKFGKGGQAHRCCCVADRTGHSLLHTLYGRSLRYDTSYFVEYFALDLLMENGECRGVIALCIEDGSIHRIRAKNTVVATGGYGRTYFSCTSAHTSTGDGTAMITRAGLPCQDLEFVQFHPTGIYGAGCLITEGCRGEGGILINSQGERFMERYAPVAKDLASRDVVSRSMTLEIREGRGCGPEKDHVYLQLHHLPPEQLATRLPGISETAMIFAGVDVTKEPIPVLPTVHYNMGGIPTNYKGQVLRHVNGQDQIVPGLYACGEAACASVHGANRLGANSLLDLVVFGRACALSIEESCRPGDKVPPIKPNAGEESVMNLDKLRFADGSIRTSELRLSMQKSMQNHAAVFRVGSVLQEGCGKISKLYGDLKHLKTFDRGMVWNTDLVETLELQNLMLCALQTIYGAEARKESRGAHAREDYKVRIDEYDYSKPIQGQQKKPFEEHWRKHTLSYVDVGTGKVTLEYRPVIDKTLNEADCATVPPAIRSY
UniProt Q9NRP4: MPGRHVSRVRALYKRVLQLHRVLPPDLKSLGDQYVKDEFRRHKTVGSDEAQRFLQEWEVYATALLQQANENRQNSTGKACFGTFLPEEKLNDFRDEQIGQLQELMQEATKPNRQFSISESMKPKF
UniProt Q96NL6: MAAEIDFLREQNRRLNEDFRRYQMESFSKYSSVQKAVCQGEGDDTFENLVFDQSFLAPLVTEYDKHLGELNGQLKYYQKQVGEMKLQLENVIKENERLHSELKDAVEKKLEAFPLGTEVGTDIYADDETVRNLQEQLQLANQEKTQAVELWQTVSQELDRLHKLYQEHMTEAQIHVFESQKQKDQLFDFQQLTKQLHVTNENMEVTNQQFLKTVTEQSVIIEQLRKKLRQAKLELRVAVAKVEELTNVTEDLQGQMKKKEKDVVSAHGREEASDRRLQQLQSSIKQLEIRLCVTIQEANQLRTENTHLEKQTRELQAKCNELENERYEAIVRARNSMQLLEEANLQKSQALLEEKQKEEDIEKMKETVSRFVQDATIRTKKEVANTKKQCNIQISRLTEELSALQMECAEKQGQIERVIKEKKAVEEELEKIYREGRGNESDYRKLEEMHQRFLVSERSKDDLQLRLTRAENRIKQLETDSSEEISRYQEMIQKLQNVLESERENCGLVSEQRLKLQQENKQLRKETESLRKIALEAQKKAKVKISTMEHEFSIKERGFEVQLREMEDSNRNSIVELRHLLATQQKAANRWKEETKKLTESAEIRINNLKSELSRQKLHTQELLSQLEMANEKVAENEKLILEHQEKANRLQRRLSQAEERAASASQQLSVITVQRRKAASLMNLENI
UniProt O00422: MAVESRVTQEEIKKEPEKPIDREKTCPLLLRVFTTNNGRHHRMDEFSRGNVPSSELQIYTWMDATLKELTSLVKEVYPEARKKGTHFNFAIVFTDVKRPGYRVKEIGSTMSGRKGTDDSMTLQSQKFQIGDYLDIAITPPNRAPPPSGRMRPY
UniProt Q6IQ49: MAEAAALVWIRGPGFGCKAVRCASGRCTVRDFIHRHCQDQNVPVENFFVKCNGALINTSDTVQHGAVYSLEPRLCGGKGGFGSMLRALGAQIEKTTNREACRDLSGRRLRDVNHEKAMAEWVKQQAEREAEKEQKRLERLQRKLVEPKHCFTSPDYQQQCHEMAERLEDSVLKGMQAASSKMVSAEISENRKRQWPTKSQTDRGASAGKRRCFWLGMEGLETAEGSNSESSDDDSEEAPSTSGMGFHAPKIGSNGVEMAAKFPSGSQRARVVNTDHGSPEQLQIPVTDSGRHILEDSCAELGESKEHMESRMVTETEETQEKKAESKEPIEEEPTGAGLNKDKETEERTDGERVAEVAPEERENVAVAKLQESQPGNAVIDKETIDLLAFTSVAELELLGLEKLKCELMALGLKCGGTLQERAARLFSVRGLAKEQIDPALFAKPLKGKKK
UniProt P25815: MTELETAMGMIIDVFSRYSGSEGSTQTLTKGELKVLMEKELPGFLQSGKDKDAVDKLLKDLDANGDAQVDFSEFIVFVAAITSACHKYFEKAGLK
UniProt Q9Y3B9: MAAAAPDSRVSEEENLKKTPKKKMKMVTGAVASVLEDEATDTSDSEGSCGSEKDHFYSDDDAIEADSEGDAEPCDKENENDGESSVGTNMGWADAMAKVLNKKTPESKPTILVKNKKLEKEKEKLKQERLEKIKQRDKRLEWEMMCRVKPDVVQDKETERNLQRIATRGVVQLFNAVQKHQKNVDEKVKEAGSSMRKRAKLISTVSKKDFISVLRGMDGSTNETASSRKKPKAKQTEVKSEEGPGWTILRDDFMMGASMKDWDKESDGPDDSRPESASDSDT
UniProt Q9Y6U3: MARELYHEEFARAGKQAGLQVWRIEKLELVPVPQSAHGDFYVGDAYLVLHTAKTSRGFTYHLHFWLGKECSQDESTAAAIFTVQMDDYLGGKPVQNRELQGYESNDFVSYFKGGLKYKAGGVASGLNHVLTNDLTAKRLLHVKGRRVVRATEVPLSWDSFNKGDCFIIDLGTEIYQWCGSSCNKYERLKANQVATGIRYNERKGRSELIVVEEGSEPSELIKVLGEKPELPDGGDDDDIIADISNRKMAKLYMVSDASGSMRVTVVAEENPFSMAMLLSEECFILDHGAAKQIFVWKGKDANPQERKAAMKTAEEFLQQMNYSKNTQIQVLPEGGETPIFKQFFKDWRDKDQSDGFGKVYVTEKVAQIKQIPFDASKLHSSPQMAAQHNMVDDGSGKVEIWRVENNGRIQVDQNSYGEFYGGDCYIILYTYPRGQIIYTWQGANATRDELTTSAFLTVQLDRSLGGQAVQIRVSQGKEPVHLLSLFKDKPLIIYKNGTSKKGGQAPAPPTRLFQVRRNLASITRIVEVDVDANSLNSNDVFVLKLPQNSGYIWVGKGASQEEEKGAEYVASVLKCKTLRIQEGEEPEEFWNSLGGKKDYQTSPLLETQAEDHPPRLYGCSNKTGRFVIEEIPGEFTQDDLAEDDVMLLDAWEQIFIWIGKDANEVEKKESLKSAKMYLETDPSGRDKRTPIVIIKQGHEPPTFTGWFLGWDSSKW
UniProt O43290: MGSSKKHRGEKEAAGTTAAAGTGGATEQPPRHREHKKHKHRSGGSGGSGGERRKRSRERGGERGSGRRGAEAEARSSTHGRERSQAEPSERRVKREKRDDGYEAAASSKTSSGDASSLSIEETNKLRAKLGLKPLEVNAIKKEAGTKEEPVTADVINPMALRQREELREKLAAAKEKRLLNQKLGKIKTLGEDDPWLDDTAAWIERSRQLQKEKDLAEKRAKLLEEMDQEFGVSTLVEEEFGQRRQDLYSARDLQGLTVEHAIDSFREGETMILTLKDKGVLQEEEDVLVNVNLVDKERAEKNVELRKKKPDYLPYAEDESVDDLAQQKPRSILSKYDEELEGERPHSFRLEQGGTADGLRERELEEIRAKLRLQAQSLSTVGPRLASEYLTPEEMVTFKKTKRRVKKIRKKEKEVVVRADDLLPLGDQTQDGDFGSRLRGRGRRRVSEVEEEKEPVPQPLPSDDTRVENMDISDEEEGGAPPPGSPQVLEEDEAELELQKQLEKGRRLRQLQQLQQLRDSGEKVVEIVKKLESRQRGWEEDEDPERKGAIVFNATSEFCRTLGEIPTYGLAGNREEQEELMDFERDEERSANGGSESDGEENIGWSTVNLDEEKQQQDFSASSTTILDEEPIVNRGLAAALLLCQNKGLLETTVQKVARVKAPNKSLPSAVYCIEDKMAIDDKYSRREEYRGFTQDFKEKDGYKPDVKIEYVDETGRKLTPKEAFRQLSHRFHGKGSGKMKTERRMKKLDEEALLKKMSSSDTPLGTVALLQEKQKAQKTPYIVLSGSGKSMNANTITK
UniProt Q9H446: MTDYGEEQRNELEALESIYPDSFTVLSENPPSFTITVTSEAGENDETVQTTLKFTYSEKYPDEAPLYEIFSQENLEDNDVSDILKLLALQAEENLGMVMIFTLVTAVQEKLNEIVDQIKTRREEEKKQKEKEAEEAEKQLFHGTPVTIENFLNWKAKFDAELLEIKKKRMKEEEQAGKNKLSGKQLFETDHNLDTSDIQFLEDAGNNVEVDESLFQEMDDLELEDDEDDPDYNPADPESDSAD
UniProt P29034: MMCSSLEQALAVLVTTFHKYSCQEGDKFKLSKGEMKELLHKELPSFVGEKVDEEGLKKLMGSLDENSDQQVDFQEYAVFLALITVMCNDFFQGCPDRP

What was measured:
Assay in all cases: log2 fold change, soluble protein after heating vs DMSO (PISA); higher = thermal stabilisation; K562 cells, 10 uM, 30 min; active = over 0.2 and 3.5 SD of the protein, either way, in both replicates (recomputed)
[1] = compound: C1=CC=C(C=C1)[C@H](COC2=CC3=C(C=C2)NC(=O)N3)NC(=O)C4=CC=CN(C4=O)CC5=CC(=C(C=C5)F)F
Summary of the method: (§1)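 K562 cells at 2×10^6 cells/mL were exposed to 10 μM compound for 30 min, then aliquots were heated for 3 min across 48°C-58°C, pooled, and extracted in PBS containing 0.5% NP-40 at 4°C. The supernatant after 21,000xg for 90 min was taken as soluble protein and measured by TMTpro 16plex LC-MS/MS with channel sums equalised. Thermal stability is reported relative to control samples, with values from duplicates. Fold changes are given on a log2 scale.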

[2] = compound: CC1=C(SC2=C1C(=N[C@H](C3=NN=C(N32)C)CC(=O)N)C4=CC=C(C=C4)Cl)C
Summary of the method: as §1

[3] = compound: CC1=C2C(=CC=C1)N=C(N(C2=O)C3=CC=CC=C3C)CN4C=NC5=C(N=CN=C54)N
Summary of the method: as §1

[4] = compound: Cc1sc2c(c1C)C(c1ccc(Cl)cc1)=N[C@@H](CC(=O)OC(C)(C)C)c1nnc(C)n1-2
Summary of the method: as §1

[5] = compound: c1ccc([C@@H]2C[C@H]2NC2CCNCC2)cc1
Summary of the method: as §1

Measured: log2 fold change

SEC23B (UniProt Q15437)
inactive: [1] -0.005 | [2] 0.077 | [3] 0.058 | [4] -0.018 | [5] -0.058

RTCB (UniProt Q9Y3I0)
inactive: [1] 0.01 | [2] -0.016 | [3] -0.055 | [4] 0.026 | [5] -0.009

SEC11C (UniProt Q9BY50)
inactive: [1] -0.047 | [2] 0.019 | [3] 0.042 | [4] -0.019 | [5] -0.026

SDHD (UniProt O14521)
inactive: [1] 0.035 | [2] 0.054 | [3] -0.02 | [4] -0.159 | [5] 0.002

RYBP (UniProt Q8N488)
inactive: [1] -0.014 | [2] -0.057 | [3] 0.018 | [4] 0.09 | [5] 0.157

SAMHD1 (UniProt Q9Y3Z3)
inactive: [1] -0.007 | [2] 0.028 | [3] -0.003 | [4] -0.011 | [5] 0.042

RSRC2 (UniProt Q7L4I2)
inactive: [1] 0.034 | [2] 0 | [3] -0.045 | [4] 0.022 | [5] 0.085

SDF4 (UniProt Q9BRK5)
inactive: [1] 0.006 | [2] -0.003 | [3] -0.006 | [4] -0.016 | [5] 0.008

RUVBL1 (UniProt Q9Y265)
inactive: [1] 0.019 | [2] 0.026 | [3] -0.008 | [4] 0.006 | [5] 0.021

SDHA (UniProt P31040)
inactive: [1] 0.018 | [2] 0.01 | [3] -0.004 | [4] 0.005 | [5] 0.01

SDHAF3 (UniProt Q9NRP4)
inactive: [1] -0.037 | [2] 0.045 | [3] 0.006 | [4] -0.024 | [5] -0.031

SCAP (UniProt Q12770)
inactive: [1] 0.041 | [2] 0.048 | [3] 0.05 | [4] 0.002 | [5] -0.031

SCLT1 (UniProt Q96NL6)
inactive: [1] 0.078 | [2] 0.215 | [3] 0.222 | [4] 0.001 | [5] -0.039

SARNP (UniProt P82979)
inactive: [1] 0.053 | [2] -0.022 | [3] -0.043 | [4] 0.052 | [5] 0.051

RUVBL2 (UniProt Q9Y230)
inactive: [1] 0.033 | [2] 0.025 | [3] -0.018 | [4] -0.019 | [5] 0.028

SAP18 isoform 2 (UniProt O00422)
inactive: [1] 0.065 | [2] -0.156 | [3] -0.131 | [4] 0.015 | [5] 0.025

SCAMP1 (UniProt O15126)
inactive: [1] 0.022 | [2] 0.05 | [3] 0.024 | [4] -0.027 | [5] 0.085

SAFB isoform 3 (UniProt Q15424)
inactive: [1] 0.101 | [2] 0.018 | [3] 0.033 | [4] 0.136 | [5] 0.168

SDE2 (UniProt Q6IQ49)
inactive: [1] -0.004 | [2] -0.065 | [3] 0.07 | [4] -0.033 | [5] 0.004

SCAMP2 (UniProt H3BUB6)
inactive: [1] 0.03 | [2] -0.017 | [3] 0.308 | [4] 0.15 | [5] 0.135

S100P (UniProt P25815)
inactive: [1] -0.073 | [2] 0.075 | [3] -0.01 | [4] -0.193 | [5] -0.113

RRP7A (UniProt Q9Y3A4)
inactive: [1] 0.037 | [2] -0.066 | [3] -0.124 | [4] 0.058 | [5] 0.042

2 neighbouring entries out of the list so far, for reference:
RYBP (UniProt Q8N488)
inactive: [1] -0.014 | [2] -0.057 | [3] 0.018 | [4] 0.09 | [5] 0.157

SAMHD1 (UniProt Q9Y3Z3)
inactive: [1] -0.007 | [2] 0.028 | [3] -0.003 | [4] -0.011 | [5] 0.042

Additional entries

RRP15 (UniProt Q9Y3B9)
inactive: [1] 0.022 | [2] -0.052 | [3] -0.018 | [4] 0.011 | [5] 0.025

SARG (UniProt Q9BW04)
inactive: [1] 0.023 | [2] 0.007 | [3] 0.02 | [4] -0.047 | [5] 0.087

RSBN1 (UniProt Q5VWQ0)
inactive: [1] 0.015 | [2] -0.285 | [3] -0.05 | [4] 0.181 | [5] 0.087

SCG3 (UniProt Q8WXD2)
inactive: [1] 0.131 | [2] 0.034 | [3] 0.09 | [4] 0 | [5] 0.051

RTN4 (UniProt Q9NQC3)
inactive: [1] 0.006 | [2] 0.025 | [3] 0.007 | [4] -0.015 | [5] 0.007

SCAMP3 (UniProt O14828)
inactive: [1] -0.005 | [2] -0.064 | [3] -0.038 | [4] 0.007 | [5] 0.067

SBF1 isoform 4 (UniProt O95248)
inactive: [1] 0.03 | [2] -0.26 | [3] -0.18 | [4] 0.102 | [5] -0.044

RRP36 (UniProt Q96EU6)
inactive: [1] 0.119 | [2] -0.266 | [3] -0.228 | [4] 0.245 | [5] 0.019

SAFB2 (UniProt Q14151)
inactive: [1] 0.051 | [2] -0.087 | [3] -0.103 | [4] 0.045 | [5] 0

SDR39U1 (UniProt Q9NRG7)
inactive: [1] 0.9 | [2] 0.005 | [3] 0.236 | [4] -0.348 | [5] -0.306

SCYL1 (UniProt Q96KG9)
inactive: [1] -0.042 | [2] 0.04 | [3] 0.033 | [4] -0.02 | [5] -0.003

SCIN (UniProt Q9Y6U3)
inactive: [1] -0.013 | [2] -0.031 | [3] 0.077 | [4] -0.026 | [5] -0.008

SDSL (UniProt Q96GA7)
inactive: [1] 0.021 | [2] -0.039 | [3] -0.068 | [4] -0.016 | [5] 0.038

SART3, A0A499FI31
inactive: [1] -0.008 | [2] 0.015 | [3] 0.056 | [4] -0.08 | [5] -0.006

SART1 (UniProt O43290)
inactive: [1] 0.136 | [2] -0.352 | [3] -0.24 | [4] 0.139 | [5] 0

RRP12 (UniProt Q5JTH9)
inactive: [1] -0.015 | [2] -0.068 | [3] 0.045 | [4] 0.001 | [5] 0

RWDD1 (UniProt Q9H446)
inactive: [1] -0.037 | [2] 0.043 | [3] 0.032 | [4] -0.045 | [5] 0.018

SACS (UniProt Q9NZJ4)
inactive: [1] -0.02 | [2] 0.018 | [3] 0.034 | [4] 0.009 | [5] -0.09

S100A2 (UniProt P29034)
inactive: [1] -0.094 | [2] 0.253 | [3] 0.492 | [4] 0.032 | [5] -0.088

SCRN3 (UniProt Q0VDG4)
inactive: [1] -0.006 | [2] 0.034 | [3] 0.002 | [4] -0.028 | [5] 0.083
